# Test results published in the supplement of paper PMC7411640.
# Where a name gives a salt, the structure may show the parent alone. The list shows a part of the results. Repeats in this data set agree poorly, so a single value says little.
# Tested on: MDA-MB-468
# Experiment: phospho-S6 immunofluorescence (DAPI-normalised), per-plate z-score; higher = higher phospho-S6 signal (less pathway suppression)
# Conditions: 24 h
# Description: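 GPCR-targeted compound library (MedChemExpress HY-L006) tested on MDA-MB-468 PTEN-null TNBC cells in 384-well plates at 0.1, 1 or 10 uM, combined with vehicle, GDC0941 450 nM or lapatinib 1 uM, for 24 h. Phospho-S6 (S240/244) immunofluorescence normalised to DAPI and expressed as a per-plate z-score; values are the mean of biological triplicates.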
# [1] = compound 0.1 µM, co-treatment: GDC0941 450 nM
# [2] = compound 0.1 µM, co-treatment: lapatinib 1 uM
# [3] = compound 0.1 µM, co-treatment: vehicle
# [4] = compound 1 µM, co-treatment: GDC0941 450 nM
# [5] = compound 1 µM, co-treatment: lapatinib 1 uM
# [6] = compound 1 µM, co-treatment: vehicle
# [7] = compound 10 µM, co-treatment: GDC0941 450 nM
# [8] = compound 10 µM, co-treatment: lapatinib 1 uM
# [9] = compound 10 µM, co-treatment: vehicle
Compound,phospho-S6 immunofluorescence (z-score) [1],phospho-S6 immunofluorescence (z-score) [2],phospho-S6 immunofluorescence (z-score) [3],phospho-S6 immunofluorescence (z-score) [4],phospho-S6 immunofluorescence (z-score) [5],phospho-S6 immunofluorescence (z-score) [6],phospho-S6 immunofluorescence (z-score) [7],phospho-S6 immunofluorescence (z-score) [8],phospho-S6 immunofluorescence (z-score) [9]
Oc1ccc(C2CNCCc3c2cc(O)c(O)c3Cl)cc1 (stereo unspecified) [Fenoldopam (mesylate)],0.14,-0.75,-0.5,2.29,0.31,-0.11,–,–,–
c1ccc(NCc2ccc(CNc3ccccn3)cc2)nc1,0.09,0.19,0.51,-0.09,-0.34,0.38,0.88,-0.48,0.72
OC[C@H]1O[C@@H](n2cnc3c(NCc4ccc(O)cc4)ncnc32)[C@H](O)[C@@H]1O [N6-(4-Hydroxybenzyl)adenosine],0.33,1.07,0.41,-0.12,1.68,1.96,-0.95,1.31,0.96
C[N+]1(C)CCC(OC(=O)C(O)(c2ccccc2)C2CCCC2)C1 (stereo unspecified) [Glycopyrrolate],0.44,0.34,1.74,0.33,-0.05,1.14,–,–,–
CN(C)C(=O)N[C@H]1CC[C@H](CCN2CCN(c3cccc(Cl)c3Cl)CC2)CC1 [Cariprazine (hydrochloride)],0.59,0.54,0.77,0.71,0.02,0.25,–,–,–
C[C@H](NC(=O)c1c(C(F)F)nn(C)c1Oc1cccc(C(F)(F)F)c1)c1ccc(C(=O)O)cc1,0.44,-0.09,-0.12,-0.08,0.37,-0.34,–,–,–
Clc1ccc2nsnc2c1NC1=NCCN1 [Tizanidine (hydrochloride)],1.44,0.93,1.52,1.18,0.93,0.36,1.42,-0.07,0.54
CCCCC1=NC2(CCCC2)C(=O)N1Cc1ccc(-c2ccccc2-c2nnn[nH]2)cc1 [Irbesartan],-0.14,-0.28,-0.06,-0.59,-0.5,-0.48,–,–,–
COc1ccc(N2CCOCC2)c2sc(NC(=O)N3CCC(C)(O)CC3)nc12 [Tozadenant],1.45,0.07,0.83,-1.05,-0.43,0.63,–,–,–
COc1cc2c(cc1OC)-c1cc3ccc4c(c3c[n+]1CC2)OCO4 [Epiberberine (chloride)],1.14,0.5,0.24,1.14,0,0.8,-0.39,0.22,1.66
CCCc1c2oc(C(=O)O)cc(=O)c2cc2c(=O)cc(C(=O)O)n(CC)c12 [Nedocromil],-0.3,-0.6,-1.12,0.32,-1.27,0.08,–,–,–
CC(C)Cc1ccc([C@@H](C)C(=O)NS(C)(=O)=O)cc1 [Reparixin (L-lysine salt)],-0.42,-0.03,-0.18,-0.91,-1.47,-1.42,-1.6,-1.46,-0.67
CNS(=O)(=O)Cc1ccc2[nH]cc(CCN(C)C)c2c1 [Sumatriptan (succinate)],-0.9,-0.57,1.14,-0.11,-1.03,0.57,0.01,0.48,0.55
OCCN1CCN(CCCN2c3ccccc3Sc3ccc(C(F)(F)F)cc32)CC1 [Fluphenazine (dihydrochloride)],-1.46,-0.91,-2.3,-0.59,-0.57,-1.77,–,–,–
CCc1c(C)[nH]c2c1C(=O)C(CN1CCOCC1)CC2 (stereo unspecified) [Molindone (hydrochloride)],1.37,1.1,-1.56,-0.23,1.5,-0.47,–,–,–
N=C(N)N/N=C/c1c(Cl)cccc1Cl [Guanabenz (Acetate)],1.3,-0.09,-0.53,0.12,1.05,-0.85,0.61,-0.12,-0.2
Cc1cc(C(C)(C)C)c(O)c(C)c1CC1=NCCN1 [Oxymetazoline (hydrochloride)],-0.42,0.23,-1.31,0.22,-0.42,-0.91,–,–,–
CCOc1nc2cccc(C(=O)O)c2n1Cc1ccc(-c2ccccc2-c2nnn[nH]2)cc1 [Candesartan],0.56,-0.23,0.86,0.54,0.32,0.76,1,0.32,0.19
O=C(O)Cn1c2c(c3cc(F)ccc31)CN(C(=O)c1cccc3ccccc13)CC2 [Setipiprant],-0.98,-0.83,-0.65,-0.4,0.34,-0.47,–,–,–
CNc1nc(NCc2ccc(NS(C)(=O)=O)cc2Cl)cc(-c2ccccn2)n1,2.06,-0.36,-0.86,2.16,0.64,0.09,–,–,–
O=C(NCC(=O)N1CC[C@H](N[C@H]2CC[C@@](O)(c3ccc(-c4ncccn4)cn3)CC2)C1)c1cccc(C(F)(F)F)c1,1.37,-0.43,0.77,-0.42,-0.34,1.18,–,–,–
CC(C)=CCC/C(C)=C/CC/C(C)=C/CSc1ccccc1C(=O)O [Salirasib],0.68,-0.05,-0.53,1.06,0.01,-0.24,–,–,–
CCCCC[C@H](O)/C=C/[C@H]1[C@H](O)CC(=O)[C@@H]1C/C=C\CCCC(=O)O [Prostaglandin E2],-1.02,-0.71,-1.24,-0.82,1.51,-0.43,-0.11,1.46,-0.52
CC(C)[C@H](NC(=O)[C@H](CCCN=C(N)N)NC(=O)[C@@H](N)CC(=O)O)C(=O)N[C@@H](Cc1ccc(O)cc1)C(=O)N[C@H](C(=O)N[C@@H](Cc1cnc[nH]1)C(=O)N1CCC[C@H]1C(=O)N[C@@H](Cc1ccccc1)C(=O)O)C(C)C [Angiotensin II 5-valine],0.83,0.91,0.55,0.99,1.87,-0.11,–,–,–
